Laboratory results reported in paper PMC7862700.
This is a selection; strong and weak results do not stand in their true shares. At the low end of the ranking the order means little.

The sequences below were run against T1, SPIC (UniProt Q8N5J4) (assay: DAPPL (digital affinity profiling via proximity ligation, sequencing)). Conditions: 10 mM Tris-HCl pH 7.5, 50 mM NaCl, 1 mM DTT, 4% glycerol, room temperature, 30 min; GST-TFs on glutathione beads, 16-mer random dsDNA library, 0.1% …; high values mean tight binding; double strand, one strand shown; scale: fold enrichment (6-mer frequency, TF over GST control).
T1 sequence: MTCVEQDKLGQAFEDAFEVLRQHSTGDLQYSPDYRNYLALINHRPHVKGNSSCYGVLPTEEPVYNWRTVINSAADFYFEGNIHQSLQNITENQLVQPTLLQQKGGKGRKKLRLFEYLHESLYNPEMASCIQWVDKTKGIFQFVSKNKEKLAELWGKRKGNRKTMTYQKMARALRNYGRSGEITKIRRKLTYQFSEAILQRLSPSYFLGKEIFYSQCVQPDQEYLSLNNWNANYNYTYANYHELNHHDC
AACCTT was tested, and the binding signal was 1.17.
Work on TCGACA yielded a binding signal of 1.28.
For GTACTT, the binding signal was 1.86.
CTGCAA showed a binding signal of 1.2.
For CCCAAT, the binding signal was 1.27.
TATTAT showed a binding signal of 1.35.
GACCTC showed a binding signal of 1.18.
In the case of CGACTA, the binding signal is reported as 1.47.
In the case of GTATAT, the binding signal is reported as 1.18.
Sequence ATACTA has a binding signal of 1.1.
For CTAACG, the binding signal was 1.04.
With CTTGCC the binding signal was 1.66.
With CCGTAA the binding signal was 1.03.
Work on TGTTAT yielded a binding signal of 1.45.
Sequence TTACTC has a binding signal of 1.24.
TGACTC gave a binding signal of 1.48.
Work on CTAATG yielded a binding signal of 1.35.
CTTTAA showed a binding signal of 1.36.
With TGCTTT the binding signal was 1.16.
Work on TACGTA yielded a binding signal of 1.27.
Work on TGTCTC yielded a binding signal of 1.11.
With ACATTA the binding signal was 1.23.
For GAACCT, the binding signal was 1.09.
CTCGAT showed a binding signal of 1.46.
ACAAGC gave a binding signal of 0.972.
Work on CCTAAA yielded a binding signal of 1.32.
Sequence TACTTC has a binding signal of 3.27.
In the case of TCTTCT, the binding signal is reported as 1.31.
Work on ATAACT yielded a binding signal of 1.28.
TTATTG showed a binding signal of 1.29.
Work on CGTTCA yielded a binding signal of 0.938.
In the case of TCTAGT, the binding signal is reported as 1.18.
GCCTCG showed a binding signal of 1.07.
Sequence CTTTCT has a binding signal of 1.67.
TTGAAC gave a binding signal of 1.06.
CTCCGC showed a binding signal of 1.51.
GTTTAC gave a binding signal of 0.977.
With CTATAT the binding signal was 1.47.
ATAGCA showed a binding signal of 0.908.
